Source: US20230374043A1, “Hexadeca Ammonium-Modified Phthalocyanine and Preparation Method and Use Thereof as Photodynamic Drug” (Fuzhou University, priority 2020, published 2023)

Assay: singlet oxygen yield in water after photosensitization
Assay type: physicochemical

Row | Compound | singlet oxygen yield
1 | C[N+](C)(C)c1cccc(Oc2cc3c(cc2Oc2cccc([N+](C)(C)C)c2)C2=[N+]4C3=Nc3c5ccccc5c5[n]3[Zn@]43[n]4c(c6ccccc6c4=N2)=NC2=[N+]3C(=N5)c3ccccc32)c1 [Example 2, 2,3-bis[3-(trimethylammonium)phenoxy]zinc phthalocyanine diiodate] | 0.42
2 | C[N+](C)(C)c1cccc(Oc2c(Oc3cccc([N+](C)(C)C)c3)c(Oc3cccc([N+](C)(C)C)c3)c3c(c2Oc2cccc([N+](C)(C)C)c2)C2=Nc4c5ccccc5c5[n]4[Zn@]46[n]7c(c8ccccc8c7=NC3=[N+]24)=NC2=[N+]6C(=N5)c3ccccc32)c1 [Example 4] | 0.19
3 | C[N+](C)(C)c1cccc(Oc2cc3c(cc2Oc2cccc([N+](C)(C)C)c2)C2=[N+]4C3=Nc3c5cc(Oc6cccc([N+](C)(C)C)c6)c(Oc6cccc([N+](C)(C)C)c6)cc5c5[n]3[Zn]43[n]4c(c6cc(Oc7cccc([N+](C)(C)C)c7)c(Oc7cccc([N+](C)(C)C)c7)cc6c4=NC4=[N+]3C(=N5)c3cc(Oc5cccc([N+](C)(C)C)c5)c(Oc5cccc([N+](C)(C)C)c5)cc34)=N2)c1 [Example 6, 2,3,9,10,16,17,23,24-octa[3-(trimethylammonium)phenoxy]zinc phthalocyanine octaiodate] | 0.14
4 | hexadeca-[3-(dimethylammonium)phenoxy]zinc phthalocyanine hexadecaiodate [Example 8] | 0.44
